# Assay results: PubChem BioAssay AID1671190 (National Center for Advancing Translational Sciences (NCATS), 2021)
# Amino acid sequences for entries named in this document (tags omitted).
# UniProt P18054, whole entry, looked up: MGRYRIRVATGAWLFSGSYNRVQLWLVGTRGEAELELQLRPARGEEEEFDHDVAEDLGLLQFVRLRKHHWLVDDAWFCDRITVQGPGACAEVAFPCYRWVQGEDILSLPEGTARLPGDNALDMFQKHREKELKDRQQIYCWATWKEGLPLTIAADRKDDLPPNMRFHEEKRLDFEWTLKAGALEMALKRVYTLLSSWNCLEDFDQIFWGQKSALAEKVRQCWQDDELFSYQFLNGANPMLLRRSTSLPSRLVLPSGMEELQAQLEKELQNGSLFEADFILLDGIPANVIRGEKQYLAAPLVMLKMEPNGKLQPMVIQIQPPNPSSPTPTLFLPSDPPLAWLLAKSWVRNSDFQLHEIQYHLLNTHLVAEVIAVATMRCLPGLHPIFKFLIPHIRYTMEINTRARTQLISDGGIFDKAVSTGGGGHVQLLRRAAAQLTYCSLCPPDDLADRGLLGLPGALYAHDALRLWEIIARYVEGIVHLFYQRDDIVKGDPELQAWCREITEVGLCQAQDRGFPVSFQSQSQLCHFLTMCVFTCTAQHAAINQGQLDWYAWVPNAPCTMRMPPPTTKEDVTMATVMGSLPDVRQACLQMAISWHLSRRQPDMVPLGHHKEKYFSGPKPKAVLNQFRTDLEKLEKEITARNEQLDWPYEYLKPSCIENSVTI
# Hit rate of the full screen: of about 580,000 compounds, about 6,100 (1.1%) were called active. The shares of active, inactive and inconclusive entries below differ from those in the screen. Calls follow the shape of the dose curve; as a rule, active = well fitted inhibition curve with a large enough effect; inconclusive = small, poorly fitted or top-dose-only effect, or another doubt; inactive = no such curve, though single readings can be large or run the other way. Potencies of inconclusive entries are doubtful fits and often do not repeat.
# Target: Polyunsaturated fatty acid lipoxygenase ALOX12 (Homo sapiens) (UniProt P18054)
# Experiment: Primary qHTS assay for inhibitors of human arachidonate 12S-lipoxygenase (ALOX12): Round 2
# Details: purified 12hLO, xylenol orange hydroperoxide absorbance; activity change, negative = inhibition: at 108 µM (top of the series) unless noted
# In short: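 Hydroperoxide product was detected by ferrous iron/xylenol orange as the 573 to 405 nm absorbance ratio. Arachidonic acid at 40 uM (final) was turned over for 30 min at room temperature by 150 nM human 12hLO, pH 7.0 Hepes buffer, after 15 min compound preincubation.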
# % is scaled to controls: 0 for no effect and ±100 for the full control effect; potency is read from the fitted curve at half-maximal effect.
SMILES,Potency,"activity change, negative = inhibition"
Cc1ccccc1Cn1c(CN2CCC(C(=O)NCc3ccc(Cl)cc3)CC2)cc2ccccc21,"inconclusive: 100 µM [inhibitor, partial curve, poor fit]",
O=C(Cc1ccc(Cl)cc1)Nc1ccncc1,,inactive: -6.45%
COC(C)(C)C#CC(=O)c1cccc2ccccc12,"inconclusive: 89.1 µM [inhibitor, single point]",
O=c1ccc(S(=O)(=O)N2CCCC2)cn1Cc1ccc(F)cc1,"inconclusive: 70.8 µM [inhibitor, partial curve, poor fit]",
NC(=O)CN1c2ccc(Br)cc2-c2ccccc2S1(=O)=O,"inconclusive: 89.1 µM [inhibitor, single point]",
O=S1(=O)c2ccccc2N(Cc2ccccc2F)c2ccccc21,,inactive: -1.41%
CC(C)(C)c1ccc(CN2N=Nc3ccccc3S2(=O)=O)cc1,"inconclusive: 22.4 µM [inhibitor, single point]",
O=C(O)/C=C/C(=O)Nc1ccccc1C(=O)Nc1ccccc1,"inconclusive: 35.5 µM [inhibitor, partial curve, poor fit]",
Cc1cc(Cl)ccc1-c1cc2nc(NCCCN(C)C)n(C)c(=O)c2s1,"inconclusive: 44.7 µM [inhibitor, partial curve, poor fit]",
COc1ccc(Nc2ccnc(N3CC4CCC(C3)N4CC(F)(F)F)n2)cc1,,inactive: 5.26% [at 6.33 µM]
COc1cccc(-c2nnnn2[C@H]2CO[C@H]3[C@@H]2OC[C@@H]3NS(=O)(=O)c2ccc(NC(C)=O)cc2)c1,"inconclusive: 56.2 µM [inhibitor, partial curve, poor fit]",
O=C(O)C1CCN(c2ccc([N+](=O)[O-])cc2[N+](=O)[O-])CC1,"inconclusive: 70.8 µM [inhibitor, partial curve, poor fit]",
CC(C)CSc1n[nH]c(=S)s1,active: 22.4 µM,
Cc1cc(C)c(OCC(=O)N(Cc2ccc(N(C)C)cc2)Cc2ccco2)c(C)c1,,inactive: -29.5%
CCOc1ccc(C(=O)CCC(=O)OCC(=O)c2ccc(OC)c(Br)c2)cc1,"inconclusive: 35.5 µM [inhibitor, partial curve, poor fit]",
COc1ccc(CN2CCC(n3cc[nH]c3=O)CC2)cc1,,inactive: 4.04% [at 176 µM]
CC1(C)Oc2ccc3ccc(=O)oc3c2/C(=C/NNC(N)=S)C1=O,"inconclusive: 35.5 µM [inhibitor, partial curve, poor fit]",
COc1ccc2oc(-c3ccco3)cc(=O)c2c1,,inactive: -14.7%
O=C(Nc1ccc2oc(-c3ccncc3)nc2c1)c1cccc2ccccc12,,inactive: -25.9%
O=C(NCC1(c2ccccc2)CC1)c1cccc(S(=O)(=O)N2CCCCC2)c1,"inconclusive: 89.1 µM [inhibitor, single point]",
Cc1nc2sc3c(c2c(=O)o1)CCCC3,"inconclusive: 44.7 µM [inhibitor, partial curve, poor fit]",
CCN(CC)C(=O)CSc1nc(O)c(Cc2ccccc2)c(=O)n1-c1ccccc1,"inconclusive: 3.98 µM [inhibitor, full curve, poor fit]",
O=C1CCCN1CCCNC(=S)Nc1ccccc1,active: 28.2 µM,

SMILES,Potency,"activity change, negative = inhibition"
COc1ccc(C2=NC(c3ccccc3)=Nc3ccc(C)cc3N2)cc1,"inconclusive: 70.8 µM [inhibitor, partial curve, poor fit]",
Cc1oc(-c2ccc(Cl)cc2)nc1CS(=O)CC(=O)NC1CCCCCC1 (configuration not stated),,inactive: -4.15%
Cc1ccc(NC(=O)COc2cccc(C)c2C)cc1S(=O)(=O)N1CCCCCC1,,inactive: -13%
FC(F)(F)c1cc(-c2ccccc2)nc(SCc2ccccn2)n1,"inconclusive: 44.7 µM [inhibitor, partial curve, poor fit]",
O=C(N/N=C\C1CC=CCC1)c1ccc(Br)o1 (configuration not stated),"inconclusive: 15.8 µM [inhibitor, partial curve, poor fit]",
COC(=O)c1cc2c(c3c4cc(OC)ccc4n(S(=O)(=O)c4cccc(C)c4)c13)C(=O)N(Cc1ccc(N(C)C)cc1)C2,"inconclusive: 7.08 µM [inhibitor, full curve, poor fit]",
Cc1oc2ccn(Cc3ccccc3F)c(=O)c2c1C(=O)NC1CCCCC1,"inconclusive: 39.8 µM [inhibitor, partial curve]",
Cc1ccc(NC(=O)c2ccc(S(=O)(=O)NCc3cccnc3)cc2)cc1C,"inconclusive: 89.1 µM [inhibitor, partial curve, poor fit]",
Cn1ccc2c(-c3cccc(C=O)c3F)cc3c(c21)C1CCC3C1 (configuration not stated),"inconclusive: 39.8 µM [inhibitor, partial curve, poor fit]",
CCCCC1NC(C(=O)O)CS1 (configuration not stated),"inconclusive: 70.8 µM [inhibitor, single point]",
Cc1ccccc1-c1cc(C(=O)O)c2ccc(Br)cc2n1,"inconclusive: 39.8 µM [inhibitor, partial curve, poor fit]",
Cc1ccc(S(=O)(=O)CCC(=O)N(CCN2CCOCC2)c2nc3ccccc3s2)cc1,"inconclusive: 5.01 µM [inhibitor, full curve, poor fit]",
CCOc1ccc(-c2nc(NC(=O)c3cc(OC)c(OC)c(OC)c3)sc2C)cc1,"inconclusive: 35.5 µM [inhibitor, partial curve, poor fit]",
c1cncc(-c2ccnc(NCCCN3CCCc4ccccc43)n2)c1,,inactive: 41.1%
CCSc1nc2nccnc2c(=O)[nH]1,"inconclusive: 22.4 µM [inhibitor, full curve, poor fit]",
Cc1nn2c(c1-c1ccccc1)NC1=C(C(=O)CCC1)C2c1ccccc1 (configuration not stated),"inconclusive: 39.8 µM [inhibitor, partial curve, poor fit]",
COc1ccccc1N1CCN(CC(O)COc2ccc(Cl)c(C)c2)CC1 (configuration not stated),"inconclusive: 15.8 µM [inhibitor, partial curve, poor fit]",
Cc1cc(N2CCCCC2)nc(Nc2ccc(NC(=O)Cc3ccccc3)cc2)n1,"inconclusive: 89.1 µM [inhibitor, partial curve, poor fit]",
COC(=O)C1=C(C)N(CCCC(=O)O)C(=O)NC1c1ccc(Br)cc1 (configuration not stated),"inconclusive: 50.1 µM [inhibitor, partial curve, poor fit]",
Cc1noc2c(NCCN3CCOCC3)cc(-c3cccc(C(F)(F)F)c3)nc12,"inconclusive: 14.1 µM [inhibitor, partial curve, poor fit]",
Cc1nc(N2CCN(c3ccccc3F)CC2)[nH]c(=O)c1CCC(C)C,"inconclusive: 28.2 µM [inhibitor, single point]",
Cc1c(C(=O)NC(=S)Nc2ccc(NC(=O)c3cccs3)cc2)cccc1[N+](=O)[O-],"inconclusive: 39.8 µM [inhibitor, partial curve, poor fit]",
O=c1oc2ccc(Br)cc2cc1-c1nc(-c2ccccc2)cs1,,inactive: -12.3%

SMILES,Potency,"activity change, negative = inhibition"
COC(=O)c1cc(NC(=O)c2ccccc2)c(=O)oc1/C=C/Nc1ccc(Oc2ccccc2)cc1,,inactive: 0.619%
CC(Oc1ccccc1F)c1nnc(SCC(=O)c2c(N)n(C3CC3)c(=O)[nH]c2=O)o1 (configuration not stated),,inactive: -14%
CCOC(=O)c1cc(S(=O)(=O)Nc2ccccc2)[nH]n1,,inactive: -14.6%
C=CCSC1=C(C#N)C(c2cc(Br)c(O)c(OC)c2)CC(=O)N1 (configuration not stated),"inconclusive: 31.6 µM [inhibitor, single point]",
Oc1ccc(Cl)cc1-c1cc(-c2cccc(Br)c2)n[nH]1,,inconclusive: -42.7% [inhibitor]
Cc1[nH]c2ccccc2c1C(=O)CSc1ccc2c(c1)OCCCO2,active: 25.1 µM,
Cc1nc2ccn(Cc3ccco3)c(=O)c2cc1C(=O)NCc1ccc(Cl)cc1,,inconclusive: -47.6% [inhibitor]
O=[N+]([O-])c1cccc(-c2nnc3n2CCCCC3)c1,,inactive: 5.58%
O=C(c1cc(COc2cccc3cccnc23)on1)N1CCC[C@H]1CO,"inconclusive: 3.16 µM [inhibitor, full curve, poor fit]",
S=c1nc(-c2csc3c2CCCC3)[nH][nH]1,"inconclusive: 39.8 µM [inhibitor, partial curve, poor fit]",
Cc1ccc(CNC(=O)c2ccc3c(c2)CCN3S(=O)(=O)c2ccc(Br)cc2)cc1,"inconclusive: 56.2 µM [inhibitor, partial curve, poor fit]",
COc1ccc(C(=O)N2CCC3(CC2)OCC(C(=O)NC2CC2)N3C(=O)c2ccc(OC)cc2)cc1 (configuration not stated),,inactive: 35.6%
CC1=C(C(=O)Nc2ccccc2)C(c2ccc(C(C)C)cc2)NC(=O)N1 (configuration not stated),,inactive: 24.9%
CN1/C(=C\C(=O)c2cccs2)C(C)(C)c2ccccc21,"inconclusive: 112 µM [inhibitor, partial curve, poor fit]",
Clc1ccc(C(Cn2ccnc2)OCc2c(Cl)cccc2Cl)c(Cl)c1 (configuration not stated),inactive,
Cc1ccc(-c2[nH]c3ccccc3c2C)cc1,"inconclusive: 31.6 µM [inhibitor, partial curve, poor fit]",
CC1CC2(CCCCCC2)Nc2ccc(F)cc21 (configuration not stated),"inconclusive: 3.55 µM [inhibitor, full curve, poor fit]",
Cc1c(C(=O)NNC(=O)c2csc(N3CCOCC3)n2)oc2ccc(Br)cc12,active: 39.8 µM,
Cc1noc(C)c1C1CCCN1C(=O)Cc1nc(-c2cccnc2)n[nH]1 (configuration not stated),"inconclusive: 20 µM [inhibitor, full curve]",
CCCCn1c(SCC(=O)N2CCC(C)CC2)nc2cc(S(N)(=O)=O)ccc21,"inconclusive: 100 µM [inhibitor, partial curve, poor fit]",
CCN(CC)c1ccc(/C=N/N(c2ccccc2)c2ccccc2)c(O)c1,,inactive: -23.8%
